Source: PubChem BioAssay AID743121 (NCATS, 2013)
This is a random part of about 26,000 reagents tested. 167 of all reagents (0.63%) were called active. 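Calls are per gene from RSA p-values that are not deposited; an individual active-marked siRNA can sensitise only weakly.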 Entries without a mark were called inactive.

Screen: 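Knock-downs that sensitise breast cancer cells to camptothecin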 (primary screen)
Cell system: MDA-MB-231 cells, a human breast cancer line
Reagent: single siRNA against human genes, 20 nM siRNA (0.8 pmol per well)
Time to read-out: 120 h (drug added 48 h after transfection, read 72 h later)
Treatment: camptothecin 20 nM (about EC30) for 72 h; vehicle 0.1% DMSO in parallel plates
Detection: 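Cell viability by ATP luminescence (CellTiter-Glo) as % of non-targeting siRNA wells, and the log2 ratio of viability without drug over viability with camptothecin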
Reading the numbers: log2 vehicle/camptothecin viability: higher = stronger sensitisation to camptothecin; viability with camptothecin and viability without drug: higher = more viable cells
Hit rule: 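Active genes have an RSA gene-level p-value below 0.001, computed from the ratios of their separate siRNAs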

The first 8 entries, ahead of the listing:
| target gene | PubChem SID | log2 vehicle/camptothecin viability | viability with camptothecin (% of control) | viability without drug (% of control) |
| --- | --- | --- | --- | --- |
| RPL35 | SID164416397 | -0.591 | 55.1 | 36.6 |
| RPL35 | SID164416398 | 0.181 | 63.9 | 72.4 |
| RPL35 | SID164416400 | -0.579 | 29.1 | 19.5 |
| APOC3 | SID164353751 | -0.237 | 76.2 | 64.7 |
| APOC3 | SID164353753 | -0.14 | 43.5 | 39.4 |
| APOC3 | SID164353754 | -0.395 | 22.3 | 17 |
| APOC3 | SID164353755 | -0.161 | 85.8 | 76.8 |
| DLX3 | SID164361674 | -0.519 | 105 | 73.3 |

The list itself, from the first entry:
| target gene | PubChem SID | log2 vehicle/camptothecin viability | viability with camptothecin (% of control) | viability without drug (% of control) |
| --- | --- | --- | --- | --- |
| RPL35 | SID164416397 | -0.591 | 55.1 | 36.6 |
| RPL35 | SID164416398 | 0.181 | 63.9 | 72.4 |
| RPL35 | SID164416400 | -0.579 | 29.1 | 19.5 |
| APOC3 | SID164353751 | -0.237 | 76.2 | 64.7 |
| APOC3 | SID164353753 | -0.14 | 43.5 | 39.4 |
| APOC3 | SID164353754 | -0.395 | 22.3 | 17 |
| APOC3 | SID164353755 | -0.161 | 85.8 | 76.8 |
| DLX3 | SID164361674 | -0.519 | 105 | 73.3 |
| DLX3 | SID164361675 | -0.755 | 32.6 | 19.3 |
| DLX3 | SID164361677 | 0.00694 | 82.1 | 82.5 |
| IDS | SID164370701 | -0.502 | 92.5 | 65.3 |
| IDS | SID164370704 | -0.545 | 66 | 45.2 |
| IDS | SID164370705 | -0.484 | 42.5 | 30.4 |
| IDS | SID164370707 | 0.314 | 65.9 | 82 |
| RORA | SID164385688 | -0.0243 | 39.4 | 38.8 |
| RORA | SID164385689 | 0.00669 | 97.9 | 98.3 |
| RORA | SID164385691 | -0.0788 | 114 | 108 |
| RORA | SID164385692 | -0.00797 | 94.9 | 94.4 |
| TRAPPC2 | SID164387537 | -0.387 | 79.9 | 61.1 |
| TRAPPC2 | SID164387539 | -0.123 | 77.1 | 70.8 |
| TRAPPC2 | SID164387542 | -0.547 | 69.7 | 47.7 |
| TRAPPC2 | SID164387545 | 0.426 | 46.7 | 62.8 |
| CALR | SID164356369 | -0.169 | 51.2 | 45.6 |
| CALR | SID164356373 | -0.135 | 109 | 99.6 |
| CALR | SID164356376 | 0.553 | 81 | 119 |
| PRKG1 | SID164382688 | -0.151 | 115 | 104 |
| PRKG1 | SID164382689 | -0.274 | 90.3 | 74.7 |
| PRKG1 | SID164382690 | 0.189 | 74.5 | 85 |
| PRKG1 | SID164382693 | -0.187 | 120 | 105 |
| HAVCR1 | SID164461064 | -0.0137 | 77.2 | 76.5 |
| HAVCR1 | SID164461066 | 0.212 | 53.7 | 62.2 |
| HAVCR1 | SID164461069 | -0.6 | 72 | 47.5 |
| HAVCR1 | SID164461071 | 0.898 | 54.8 | 102 |
| MDM4 | SID164375166 | -0.504 | 87.4 | 61.7 |
| MDM4 | SID164375167 | 0.058 | 100 | 104 |
| MDM4 | SID164375168 | -0.613 | 96.8 | 63.3 |
| MDM4 | SID164375169 | -0.306 | 97.3 | 78.7 |
| ADRA1D | SID164352533 | -0.2 | 108 | 94.4 |
| ADRA1D | SID164352535 | 0.772 | 28.9 | 49.4 |
| ADRA1D | SID164352538 | -0.468 | 67.7 | 48.9 |
| ADRA1D | SID164352540 | 0.297 | 40.6 | 49.9 |
| RB1CC1 | SID164406597 | 0.61 | 34.5 | 52.6 |
| RB1CC1 | SID164406598 | -0.0436 | 99.5 | 96.5 |
| RB1CC1 | SID164406599 | 0.104 | 63 | 67.7 |
| RB1CC1 | SID164406600 | 0.096 | 82.3 | 87.9 |
| USP21 | SID164461908 | 0.0481 | 112 | 116 |
| USP21 | SID164461909 | -0.0641 | 88.8 | 85 |
| USP21 | SID164461912 | -0.244 | 49.4 | 41.7 |
| USP21 | SID164461914 | 0.0389 | 90.4 | 92.9 |
| RAB43 | SID164657416 | -0.192 | 66.9 | 58.5 |
| RAB43 | SID164657417 | -0.215 | 120 | 103 |
| RAB43 | SID164657418 | -0.239 | 97.2 | 82.4 |
| RAB43 | SID164657419 | -0.262 | 67 | 55.9 |
| AP2M1 | SID164358600 | -0.339 | 53.4 | 42.2 |
| AP2M1 | SID164358604 | -0.293 | 56.9 | 46.4 |
| AP2M1 | SID164358607 | -0.159 | 64.8 | 58.1 |
| NR2F1 | SID164391506 | -0.246 | 77.1 | 65 |
| NR2F1 | SID164391509 | -0.338 | 54.4 | 43 |
| NR2F1 | SID164391511 | 0.0704 | 14.2 | 14.9 |
| NR2F1 | SID164391512 | 0.19 | 46 | 52.5 |
| LRSAM1 | SID164550462 | -0.0719 | 44.5 | 42.4 |
| LRSAM1 | SID164550463 | 0.621 | 50 | 76.9 |
| LRSAM1 | SID164550466 | -0.158 | 93.1 | 83.4 |
| LDLRAD3 | SID164572950 | 0.012 | 93.7 | 94.5 |
| LDLRAD3 | SID164572952 | -0.186 | 86.9 | 76.4 |
| LDLRAD3 | SID164572953 | 0.444 | 65.3 | 88.9 |
| LDLRAD3 | SID164572954 | 0.125 | 60.9 | 66.4 |
| RASGRF1 | SID164384769 | -0.0289 | 103 | 101 |
| RASGRF1 | SID164384772 | 0.637 | 38.6 | 60 |
| RASGRF1 | SID164384775 | -0.225 | 39.6 | 33.9 |
| RASGRF1 | SID164384777 | -0.637 | 57.4 | 36.9 |
